Laboratory results as given in the supplement of paper PMC8866396.
± gives the standard deviation of the averaged measurements. The list shows a part of the results. Single values are uncertain here, since repeats match poorly.

The molecules below were run on IL-6-GFP PC-9GR (assay: IL-6-GFP fluorescence relative to DMSO control (fraction of control); higher = more IL-6-GFP expression). Settings: compound concentration: 10 uM; treatment time: 48 h.
Experimental: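 IL-6-GFP-overexpressing PC-9 and PC-9GR EGFR-mutant lung cancer cells (3000 cells/well, 96-well) were treated for 48 h with each compound of the Selleck L2000 library at 10 uM. IL-6-GFP fluorescence was read on a high-content screening system, and viability by CCK-8 absorbance on a parallel plate set. Each value was normalised as compound well / DMSO control well; two independent replicates.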

| SMILES | IL-6-GFP fluorescence |
| --- | --- |
| COc1ccc(S(=O)(=O)N(C(C)=O)c2ccccc2/C=C/c2cc[n+]([O-])cc2)cc1 | 2.5 ± 0.22 |
| CCS(=O)(=O)O.COC(=O)c1ccc2c(c1)NC(=O)/C2=C(\Nc1ccc(N(C)C(=O)CN2CCN(C)CC2)cc1)c1ccccc1 [Nintedanib Ethanesulfonate Salt] | 1.28 ± 0.29 |
| CC(Oc1cc(-c2cnn(C3CCNCC3)c2)cnc1N)c1c(Cl)ccc(F)c1Cl (stereo not given) | 1.23 ± 0.17 |
| N#CC1(c2ccc(NC(=O)c3cccnc3NCc3ccncc3)cc2)CCCC1 [Apatinib] | 1.06 ± 0.45 |
| O=c1[nH]c(=O)n(C2CC(O)C(CO)O2)cc1F (stereo not given) [Floxuridine] | 1.11 ± 0.045 |
| CS(=O)(=O)c1ccc(C(=O)Nc2ccc(Cl)c(-c3ccccn3)c2)c(Cl)c1 [Vismodegib (GDC-0449)] | 1.07 ± 0.013 |
| COC1OC2OC3(C)CCC4C(C)CCC(C1C)C24OO3 (stereo not given) [Artemether] | 0.756 ± 0.34 |
| C[Se]CC[C@H](N)C(=O)O [L-SelenoMethionine] | 1.62 ± 1.1 |
| CC(=O)OCC(CCn1cnc2cnc(N)nc21)COC(C)=O [Famciclovir] | 0.877 ± 0.12 |
| Cc1ccc(-c2cc(C(F)(F)F)nn2-c2ccc(S(N)(=O)=O)cc2)cc1 [Celecoxib] | 1.011 ± 0.01 |
| CNC(=O)C(NC(=O)C(CC(C)C)C(O)C(=O)NO)C(C)(C)C (stereo not given) [Marimastat (BB-2516)] | 0.853 ± 0.18 |
| O=c1oc2cc(O)ccc2s1 [Tioxolone] | 1.24 ± 0.095 |
| CC(C(=O)O)c1cccc(C(=O)c2ccccc2)c1 (stereo not given) [Ketoprofen] | 0.669 ± 0.17 |
| CCCC(=O)OC1(C(=O)CCl)C(C)CC2C3CCC4=CC(=O)C=CC4(C)C3(F)C(=O)CC21C (stereo not given) [clobetasone butyrate] | 0.971 ± 0.26 |
| CCOc1ccc(NC(C)=O)cc1 [Phenacetin] | 1.28 ± 0.24 |
| CCOc1ccccc1OCCNC(C)Cc1ccc(OC)c(S(N)(=O)=O)c1 (stereo not given) [Tamsulosin] | 0.831 ± 0.2 |
| Cl.Cl.O=C(O)COCCN1CCN(C(c2ccccc2)c2ccc(Cl)cc2)CC1 (stereo not given) [Cetirizine DiHCl] | 1.02 ± 0.023 |
| CN(C)N=Nc1[nH]cnc1C(N)=O [Dacarbazine] | 0.976 ± 0.33 |
| O=C(O)CCCN1CCC(OC(c2ccc(Cl)cc2)c2ccccn2)CC1.O=S(=O)(O)c1ccccc1 (stereo not given) [Bepotastine Besilate] | 0.873 ± 0.017 |
| Cc1c(Cl)cccc1Nc1ncccc1C(=O)O [Clonixin] | 0.69 ± 0.012 |

| SMILES | IL-6-GFP fluorescence |
| --- | --- |
| COc1ccc2c(c1)nc(S(=O)Cc1ncc(C)c(OC)c1C)[n]2[Na] (stereo not given) [Omeprazole Sodium] | 0.989 ± 0.2 |
| C=CC1CC1(NC(=O)C1CC(Oc2ncc(OC)c3ccc(Cl)cc23)CN1C(=O)C(NC(=O)OC(C)(C)C)C(C)(C)C)C(=O)NS(=O)(=O)C1CC1 (stereo not given) [Asunaprevir] | 0.726 ± 0.035 |
| CC(C)=CCC/C(C)=C/CC/C(C)=C/CCC(=O)OC/C=C(\C)CCC=C(C)C [Gefarnate] | 0.914 ± 0.05 |
| S=c1nc[nH]c2nc[nH]c12 [Mercaptopurine (6-MP)] | 1.1 ± 0.21 |
| COc1ccc2cc(C(C)C(=O)O)ccc2c1 (stereo not given) [Naproxen] | 1.08 ± 0.32 |
| Cc1ccc(C(=O)Nc2ccc(CN3CCN(C)CC3)c(C(F)(F)F)c2)cc1C#Cc1cnc2cccnn12 | 2.35 ± 1.9 |
| COc1ccc2c(c1)c(CC(=O)OCC(=O)O)c(C)n2C(=O)c1ccc(Cl)cc1 [Acemetacin] | 1.18 ± 0.44 |
| Cl.N=C1CCCN1Cc1[nH]c(=O)[nH]c(=O)c1Cl [Tipiracil hydrochloride] | 0.8336 ± 0.0057 |
| CN(C)c1cc(CNCC(C)(C)C)c(O)c2c1CC1CC3C(N(C)C)C(O)=C(C(N)=O)C(=O)C3(O)C(O)=C1C2=O.Cc1ccc(S(=O)(=O)O)cc1 (stereo not given) [Omadacycline tosylate] | 0.774 ± 0.1 |
| CNNCc1ccc(C(=O)NC(C)C)cc1.Cl [Procarbazine HCl] | 1.37 ± 0.63 |
| COc1c2occc2c(OC)c2c(=O)cc(C)oc12 [Khellin] | 0.761 ± 0.098 |
| CC1CC2C3CC(F)C4=CC(=O)C=CC4(C)C3(F)C(O)CC2(C)C1(O)C(=O)CO (stereo not given) [Diflorasone] | 0.876 ± 0.083 |
| OCc1ccccc1OC1OC(CO)C(O)C(O)C1O (stereo not given) [Salicin] | 0.769 ± 0.22 |
| COc1c2occc2cc2ccc(=O)oc12 [Methoxsalen] | 0.69 ± 0.31 |
| COc1cc(C(=O)NS(=O)(=O)c2ccccc2C)ccc1Cc1cn(C)c2ccc(NC(=O)OC3CCCC3)cc12 [Zafirlukast] | 0.709 ± 0.16 |
| CCc1ccc(Cc2ccc3c(c2)C2(OC3)OC(CO)C(O)C(O)C2O)cc1.O (stereo not given) [Tofogliflozin(CSG 452)] | 0.942 ± 0.091 |
| CC(C)(C#N)c1cc(Cn2cncn2)cc(C(C)(C)C#N)c1 [Anastrozole] | 0.925 ± 0.02 |
| CC(=O)OCC(=O)C1(O)C(C)CC2C3CCC4=CC(=O)C=CC4(C)C3(F)C(O)CC21C (stereo not given) [Dexamethasone Acetate] | 0.952 ± 0.021 |
| NC(CCC(=O)NC(CS)C(=O)NCC(=O)O)C(=O)O (stereo not given) [Glutathione] | 0.829 ± 0.14 |
| CNC(=O)c1cc(Oc2ccc(NC(=O)Nc3ccc(Cl)c(C(F)(F)F)c3)cc2)ccn1.Cc1ccc(S(=O)(=O)O)cc1 [Sorafenib Tosylate] | 0.973 ± 0.18 |

A few values from above.
Value for `S=c1nc[nH]c2nc[nH]c12` [Mercaptopurine (6-MP)] under IL-6-GFP fluorescence: 1.1 ± 0.21
Value for `CC1CC2C3CC(F)C4=CC(=O)C=CC4(C)C3(F)C(O)CC2(C)C1(O)C(=O)CO` (stereo not given) [Diflorasone] under IL-6-GFP fluorescence: 0.876 ± 0.083
Value for `CCc1ccc(Cc2ccc3c(c2)C2(OC3)OC(CO)C(O)C(O)C2O)cc1.O` (stereo not given) [Tofogliflozin(CSG 452)] under IL-6-GFP fluorescence: 0.942 ± 0.091
